About 6,200 (1.8%) of roughly 340,000 compounds were called active. The shares of active, inactive and inconclusive entries below differ from those in the screen. Calls come from the whole dose curve; as a rule, active = well fitted activation curve with a large enough effect; inconclusive = small, poorly fitted or top-dose-only effect; inactive = no such curve, though single readings can be large or run the other way. Where the call is inconclusive, the potency comes from a doubtful curve fit.
Assay: A quantitative high throughput screen for small molecules that induce DNA re-replication in SW480 colon adenocarcinoma cells. For re-replication activation: % of control where 0% means no effect. Note: nearly all actives have a fitted effect of over 55% in size.
Settings: Hoechst DNA content imaging, 48 h; re-replication activation: at 46.1 µM (top of the series) unless noted
How it was run: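 Readout is total intensity of Hoechst-stained nuclei, excited at 405 nm and collected at 500-530 nm. Compound treatment lasted 48 hr at 37 C in 5% CO2 before staining.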
In the case of CCOC(=O)c1c(C)n(C)c2ccc(O)c(CN3CCN(C)CC3)c12, the “re-replication activation” value is reported as inactive: -0.216%. With Cc1ccc(SC(C)C(=O)Nc2ccccc2-c2ccccc2)cc1 (stereo not drawn) the Potency was inconclusive: 29.1 µM [activator, single point]. With CCOC(=O)c1c(/N=C/N(C)C)sc(/C=N/Nc2ccccc2)c1-c1ccccc1 the Potency was inconclusive: 18.4 µM [activator, single point]. In the case of COc1ccc(C(=O)c2cnc[nH]2)cc1, the Potency is reported as inconclusive: 29.1 µM [activator, single point]. In the case of Cc1ccc(-c2cc(C(=O)N3CCN(c4ncccn4)CC3)c3cc(Br)ccc3n2)o1, the Potency is reported as inconclusive: 29.1 µM [activator, single point]. In the case of CN(C(=O)CCn1c(=S)oc2ccccc21)c1ccc(F)cc1, the Potency is reported as inconclusive: 20.6 µM [activator, single point]. For CC(C)[C@H]1COCCS(=O)(=O)N1Cc1ccccc1-c1ccc(F)cc1, the Potency was inconclusive: 29.1 µM [activator, single point]. For Cc1c(N(C(=O)c2ccccn2)C2(C(=O)NC3CCCCC3)CCCCC2)c(=O)n(-c2ccccc2)n1C, the Potency was inconclusive: 4.11 µM [activator, single point]. For CC1CN(S(=O)(=O)c2cccc(C(=O)NCC(c3cccs3)N3CCOCC3)c2)CC(C)O1 (stereo not drawn), the Potency was inconclusive: 29.1 µM [activator, single point]. In the case of CN1CCN(c2ccc(S(=O)(=O)N3CCCCC3)cc2NC(=O)c2cccc([N+](=O)[O-])c2)CC1, the “re-replication activation” value is reported as inactive: -5.83%. With CCC(=O)N(CC)C1=C(O)c2ccccc2C(=O)C1=O the Potency was inconclusive: 29.1 µM [activator, single point]. For CCS(=O)(=O)N1CCC(C(=O)NCc2ccc3c(c2)OCO3)CC1, the Potency was inconclusive: 29.1 µM [activator, single point]. In the case of CCOc1ccc(-c2cn(-c3ccccc3OC)c(=S)[nH]2)cc1, the Potency is reported as inconclusive: 23.1 µM [activator, single point]. With C/C(=N\NC(=O)c1cc(-c2ccc(Br)s2)[nH]n1)c1ccncc1 the Potency was inconclusive: 29.1 µM [activator, single point]. In the case of CCN1CCc2c(sc(NC(=O)c3ccc(S(=O)(=O)N4CCCCCC4)cc3)c2C(=O)NC)C1, the Potency is reported as inconclusive: 20.6 µM [activator, single point]. With Cc1ccc(OCc2nc(C#N)c(N3CCCCC3)o2)cc1 the “re-replication activation” value was inactive: -38.3%. For O=c1cc(-c2ccccc2[N+](=O)[O-])oc2ccccc12, the Potency was inconclusive: 20.6 µM [activator, single point]. With COc1ccc(S(=O)(=O)c2cnc3ccccc3n2)cc1 the Potency was inconclusive: 16.4 µM [activator, single point]. For Cc1ccc(-n2nc3c(N4CCC(C(=O)NCc5cccc(F)c5)CC4)nnc(C)c3c2C)cc1, the “re-replication activation” value was inactive: -2.62%. For COc1ccc(CCNC(=O)c2coc(=O)c(Br)c2)cc1, the Potency was inconclusive: 3.66 µM [activator, full curve]. With CN(C)c1ccc(-c2nn3c(-c4ccccc4Cl)nnc3s2)cc1 the Potency was active: 1.03 µM. For CC(=O)c1cccc(NC(=O)NC2CCCCCCC2)c1, the “re-replication activation” value was inactive: 3.35%. In the case of OC1(c2ccc(Cl)c(Cl)c2)C[n+]2ccccc2N1Cc1ccccc1 (stereo not drawn), the Potency is reported as inconclusive: 29.1 µM [activator, single point]. With CCOc1ccc(N2C(=O)C(CC(=O)Nc3ccccc3)N(Cc3ccccn3)C2=S)cc1 (stereo not drawn) the Potency was inconclusive: 10.3 µM [activator, partial curve, poor fit]. For COc1ccc(CC(=O)N(Cc2ccccc2)c2ccccc2)cc1S(=O)(=O)N1CCOCC1, the Potency was inconclusive: 23.1 µM [activator, single point]. With CSc1ccccc1C(=O)C1CCCN(Cc2c(C)n(C)n(-c3ccccc3)c2=O)C1 (stereo not drawn) the Potency was inconclusive: 1.16 µM [activator, partial curve, poor fit]. In the case of O=C(CN(C1CCCCC1)S(=O)(=O)c1ccc(Br)cc1)NCc1cccnc1, the “re-replication activation” value is reported as inactive: -1%. With COC(=O)C1=C(C)N(Cc2ccccc2)C(=S)N[C@H]1c1ccccc1 the Potency was inconclusive: 0.184 µM [activator, full curve, poor fit]. For O=C(/C=C/c1cccs1)c1cc(Br)ccc1OC(=O)N1CCOCC1, the Potency was inconclusive: 29.1 µM [activator, single point]. For Cc1nc(NCc2cccnc2)c2c3c(sc2n1)CC(C)CC3 (stereo not drawn), the Potency was inconclusive: 0.651 µM [activator, partial curve, poor fit]. With Cc1cc(CN(C)C(=O)c2cc(COc3ccc(C)c(C)c3)on2)n[nH]1 the Potency was inconclusive: 29.1 µM [activator, single point]. With Cc1ccc(-c2csc3ncnc(Nc4ccc(C(=O)O)cc4)c23)cc1 the Potency was inconclusive: 29.1 µM [activator, single point]. For COc1cccc(NC(=O)CN(C)C(=O)CSCC(=O)Nc2ccc(C)cc2)c1, the Potency was inconclusive: 18.4 µM [activator, single point]. For COc1ccccc1NC(=O)CC(c1ccc(OC(C)C)cc1)c1ccccc1OC (stereo not drawn), the Potency was inconclusive: 32.6 µM [activator, partial curve, poor fit]. In the case of CC(=O)Nc1ccc(S(=O)(=O)NC2CC2)cc1, the “re-replication activation” value is reported as inactive: 0.572%. With O=S(=O)(c1ccc(Cl)nc1)N1CCOCC1 the Potency was inconclusive: 7.31 µM [activator, partial curve, poor fit]. In the case of COC(=O)Cn1c(=NC(=O)c2cc(-c3cccs3)nc3ccccc23)sc2cc(S(N)(=O)=O)ccc21, the Potency is reported as inconclusive: 16.4 µM [activator, single point]. With N#Cc1c(-c2ccc3c(c2)OCO3)cc[nH]c1=O the “re-replication activation” value was inactive: -18.3%. In the case of COCCCNc1nc2nonc2nc1NCCSC, the “re-replication activation” value is reported as inactive: -16.8%. For Fc1ccc(-c2nc(-c3cnccn3)no2)c(Cl)c1, the Potency was inconclusive: 5.17 µM [activator, single point]. With CCc1ccc(/C=N/NC(=O)c2nnn(-c3nonc3N)c2C(C)C)cc1 the Potency was inconclusive: 15.8 µM [activator, single point]. With CN(CC(=O)Nc1cccc(F)c1)C(=O)c1ccc(COc2ccccc2)cc1 the Potency was inconclusive: 0.0184 µM [activator, full curve, poor fit]. In the case of Cc1ccc(S(=O)(=O)CC(C)N2CCOCC2)c(S(=O)(=O)CC(C)N2CCOCC2)c1 (stereo not drawn), the “re-replication activation” value is reported as inactive: -17%. In the case of CN(C(=S)NC(=O)CCCOc1ccc(Cl)cc1Cl)c1ccccc1, the Potency is reported as inconclusive: 29.1 µM [activator, single point]. In the case of CCOC(=O)C(=Cc1cc(=O)c(OC)co1)C(=O)OCC, the Potency is reported as inconclusive: 2.31 µM [activator, full curve, poor fit]. With O=C(/C=C/c1ccc(Cl)cc1Cl)Nc1cccc(S(=O)(=O)NC2=NCCCCC2)c1 the “re-replication activation” value was inactive: 1.22%. With CCNc1nc(SC(C(C)=O)C(C)=O)nc(N(C)C)n1 the “re-replication activation” value was inactive: 2.42%. In the case of CCOC(=O)N1CCN(c2ccc([N+](=O)[O-])cc2)CC1, the “re-replication activation” value is reported as inactive: 2.14%. With N#Cc1ccsc1NC(=O)CN1CCCCCC1 the “re-replication activation” value was inactive: -8.68%. In the case of Cc1cccc(Nc2nc(-c3ccncc3)cs2)c1, the Potency is reported as inconclusive: 14.6 µM [activator, partial curve]. With CCCCCCC#Cc1cncc(C(=O)NNC(=O)Nc2cc(Cl)cc(Cl)c2)c1 the “re-replication activation” value was inactive: -50.3%. In the case of CCCCc1nnc(NC(=O)CSCc2cc(=O)n3c(C)csc3n2)s1, the Potency is reported as inconclusive: 3.66 µM [activator, single point]. With CCOc1c(Br)cc(/C=C2\C(=O)N(CCC#N)N=C2C)cc1OC the Potency was inconclusive: 18.4 µM [activator, single point]. In the case of Oc1ccccc1C1SC(c2ccccc2O)SC(c2ccccc2O)S1 (stereo not drawn), the Potency is reported as inconclusive: 29.1 µM [activator, single point]. In the case of O=C(CCCN1C(=O)c2ccccc2C1=O)Oc1ccc(F)cc1, the Potency is reported as inconclusive: 32.6 µM [activator, partial curve, poor fit]. With O=C(CSc1nnc(-c2ccccc2O)o1)Oc1ccc(OCc2ccccc2)cc1 the Potency was inconclusive: 20.6 µM [activator, partial curve, poor fit]. In the case of COC(=O)C1=C(C)N(c2cc(C)cc(C)c2)/C(=C/c2ccc(O)cc2)C1=O, the Potency is reported as inconclusive: 29.1 µM [activator, single point]. For COc1ccc(OC)c(NC(=O)CSc2ncnc3sc(C)cc23)c1, the Potency was inconclusive: 5.8 µM [activator, full curve]. In the case of CSc1ccccc1NC(=O)C(=O)c1c[nH]c2ccccc12, the “re-replication activation” value is reported as inactive: 23%. In the case of c1ccc2c(c1)C(=NC1CCCCC1)NC2=NC1CCCCC1, the Potency is reported as inconclusive: 29.1 µM [activator, single point]. For O=C(c1ccc(F)cc1)N1CCCC(C(=O)N2CCN(c3ccccc3)CC2)C1 (stereo not drawn), the “re-replication activation” value was inactive: -12.5%. In the case of CCOC(=O)c1ccc2nc(NC(=O)c3cccs3)sc2c1, the “re-replication activation” value is reported as inactive: 7.02%. With COc1ccc(-c2c(C#CC(C)(C)O)c3ccccc3n2C)cc1 the Potency was inconclusive: 5.17 µM [activator, partial curve, poor fit]. With Cc1ccc2nc(Cl)c(/C=N/Nc3ccc(C(=O)O)cc3)cc2c1 the Potency was inconclusive: 20.6 µM [activator, partial curve, poor fit]. For CC1(C)Cc2c(c(-c3ccco3)nc3sc4c(NCC5CCCO5)ncnc4c23)CO1 (stereo not drawn), the Potency was inconclusive: 2.59 µM [activator, partial curve, poor fit]. For O=C(CSc1ccc(Cl)cc1)N1CCN(c2c(Cl)cccc2[N+](=O)[O-])CC1, the “re-replication activation” value was inactive: 0.236%. For COc1ccc(N/C=C\C(=O)c2ccc3ccccc3c2)cc1, the Potency was inconclusive: 0.116 µM [activator, full curve, poor fit]. In the case of CCc1ccc(N2C(=O)C(Cl)=C(Nc3ccc(C(=O)N4CCCC4)cc3)C2=O)cc1, the Potency is reported as inconclusive: 29.1 µM [activator, single point].
Potency is the fitted concentration of half-maximal effect.
